Reference: patent publication US20080241130A1
No constants are given. Whether binding was seen depends on the method and setting. Some binding calls cover weakened binding; strength is not graded here.

How the values were obtained:
[1] = target: human IL-17RC.Fc (human); test: indirect sandwich ELISA: IL-17RC.Fc captured on goat anti-human IgG-Fc, biotinylated cytokine titrated, Poly-HRP streptavidin
[2] = target: human IL-17R.Fc (human); test: indirect sandwich ELISA; receptor.Fc captured on goat anti-human IgG-Fc, biotinylated cytokine titrated
[3] = target: human IL-17RC.Fc (human); test: as above
[4] = target: human IL-17R.Fc (human); test: SPR (Biacore 2000), receptor.Fc amine-coupled, cytokine injected
[5] = target: human IL-17RC.Fc (human); test: as above
[6] = target: human IL-17R.Fc (human); test: indirect sandwich ELISA: IL-17R.Fc captured on goat anti-human IgG-Fc, biotinylated cytokine titrated, Poly-HRP streptavidin

Measured: binding

B1: human IL-17F (ligand)
chain: RKIPKVGHTFFQKPESCPPVPGGSMKLDIGIINENQRVSMSRNIESRSTSPWNYTVTWDPNRYPSEVVQAQCRNLGCINAQGKEDISMNSVPIQQETLVVRRKHQGCSVSFQLEKVLVTVGCTCVTPVIHHVQ
modifications: biotinylated in the ELISA (FluoReporter Mini-biotin-XX kit); sites not stated
binds: [1] | [2] | [3] | [4] | [5] | [6]
